These are yes or no findings as the source states them, for the method shown. Tags and fused reporters may be left off the sequences shown.
Target: T1, SIRT2FL-His6X (full length human sirtuin-2 with a C-terminal His6X tag) (human), Q8IXJ6
T1 chain: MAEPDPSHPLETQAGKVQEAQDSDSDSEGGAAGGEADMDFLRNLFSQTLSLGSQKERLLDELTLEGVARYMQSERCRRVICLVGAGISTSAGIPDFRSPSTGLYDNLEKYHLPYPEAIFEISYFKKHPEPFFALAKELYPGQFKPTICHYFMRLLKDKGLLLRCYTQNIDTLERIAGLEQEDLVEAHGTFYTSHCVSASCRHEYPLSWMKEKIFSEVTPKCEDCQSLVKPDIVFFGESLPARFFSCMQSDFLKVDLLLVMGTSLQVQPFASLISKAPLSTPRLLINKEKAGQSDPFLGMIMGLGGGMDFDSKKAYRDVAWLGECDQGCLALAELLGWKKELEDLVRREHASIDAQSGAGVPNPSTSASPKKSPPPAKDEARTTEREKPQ
Experiment: SEC
Conditions: remark: other sources report otherwise

B1: SIRT2FL-His6X (full length human sirtuin-2 with a C-terminal His6X tag), Q8IXJ6 1-389 (enzyme)
chain: MAEPDPSHPLETQAGKVQEAQDSDSDSEGGAAGGEADMDFLRNLFSQTLSLGSQKERLLDELTLEGVARYMQSERCRRVICLVGAGISTSAGIPDFRSPSTGLYDNLEKYHLPYPEAIFEISYFKKHPEPFFALAKELYPGQFKPTICHYFMRLLKDKGLLLRCYTQNIDTLERIAGLEQEDLVEAHGTFYTSHCVSASCRHEYPLSWMKEKIFSEVTPKCEDCQSLVKPDIVFFGESLPARFFSCMQSDFLKVDLLLVMGTSLQVQPFASLISKAPLSTPRLLINKEKAGQSDPFLGMIMGLGGGMDFDSKKAYRDVAWLGECDQGCLALAELLGWKKELEDLVRREHASIDAQSGAGVPNPSTSASPKKSPPPAKDEARTTEREKPQ
binding: no binding

— publication doi:10.1101/2025.09.23.677902
